No constants are given. Whether binding was seen depends on the method and setting. Some results given as binding are weak or reduced against the parent protein; the word gives no strength. Sequences can lack the tags named with a protein.
Target: T1, synthetic Hd1 microProtein (Hd1miP), fused to the GAL4 binding domain (rice (Oryza sativa)) (UniProt Q9FDX8)
T1 sequence: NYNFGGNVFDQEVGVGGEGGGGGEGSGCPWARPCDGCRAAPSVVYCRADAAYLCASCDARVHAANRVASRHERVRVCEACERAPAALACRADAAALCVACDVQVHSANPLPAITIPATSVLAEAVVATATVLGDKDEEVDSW
Experiment: two-hybrid

- binding: binds
Substance: HEADING DATE 1 (Hd1) full length, fused to the GAL4 activation domain (from UniProt Q9FDX8 1-395)

Reference: paper doi:10.1101/266486
